Measured values: publication PMC12671161
These are yes or no findings as the source states them, for the method shown. Binding seen in cells or lysates may run through a third protein. Some entries that bind do so weakly or less than the wild type. Sequences can lack the tags named with a protein.

Target: T1, Flag-IRF3 (UniProt Q14653)
T1 sequence: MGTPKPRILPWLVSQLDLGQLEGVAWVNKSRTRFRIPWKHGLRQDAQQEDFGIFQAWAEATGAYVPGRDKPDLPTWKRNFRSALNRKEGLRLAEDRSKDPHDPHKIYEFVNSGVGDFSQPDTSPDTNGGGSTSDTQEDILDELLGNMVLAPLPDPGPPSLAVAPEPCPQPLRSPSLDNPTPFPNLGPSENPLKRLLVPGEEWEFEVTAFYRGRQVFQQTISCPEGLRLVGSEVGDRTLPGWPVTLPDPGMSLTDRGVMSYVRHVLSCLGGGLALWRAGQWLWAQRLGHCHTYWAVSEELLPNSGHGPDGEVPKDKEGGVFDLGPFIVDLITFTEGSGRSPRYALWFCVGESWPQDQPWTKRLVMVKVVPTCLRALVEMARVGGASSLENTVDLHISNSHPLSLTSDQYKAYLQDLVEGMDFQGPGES
Assay: co-IP

B1: HA-TBK1 (enzyme, UniProt Q9UHD2 1-729)
chain: MQSTSNHLWLLSDILGQGATANVFRGRHKKTGDLFAIKVFNNISFLRPVDVQMREFEVLKKLNHKNIVKLFAIEEETTTRHKVLIMEFCPCGSLYTVLEEPSNAYGLPESEFLIVLRDVVGGMNHLRENGIVHRDIKPGNIMRVIGEDGQSVYKLTDFGAARELEDDEQFVSLYGTEEYLHPDMYERAVLRKDHQKKYGATVDLWSIGVTFYHAATGSLPFRPFEGPRRNKEVMYKIITGKPSGAISGVQKAENGPIDWSGDMPVSCSLSRGLQVLLTPVLANILEADQEKCWGFDQFFAETSDILHRMVIHVFSLQQMTAHKIYIHSYNTATIFHELVYKQTKIISSNQELIYEGRRLVLEPGRLAQHFPKTTEENPIFVVSREPLNTIGLIYEKISLPKVHPRYDLDGDASMAKAITGVVCYACRIASTLLLYQELMRKGIRWLIELIKDDYNETVHKKTEVVITLDFCIRNIEKTVKVYEKLMKINLEAAELGEISDIHTKLLRLSSSQGTIETSLQDIDSRLSPGGSLADAWAHQEGTHPKDRNVEKLQVLLNCMTEIYYQFKKDKAERRLAYNEEQIHKFDKQKLYYHATKAMTHFTDECVKKYEAFLNKSEEWIRKMLHLRKQLLSLTNQCFDIEEEVSKYQEYTNELQETLPQKMFTASSGIKHTMTPIYPSSNTLVEMTLGMKKLKEEMEGVVKELAENNHILERFGSLTMDGGLRNVDCL
With B1 the binding was “binds”.
